# Reference: paper PMC12216202
# No constants are given. Whether binding was seen depends on the method and setting. Binding seen in cells or lysates may run through a third protein. Some binding calls cover weakened binding; strength is not graded here. For some assays here: Sequences can lack the tags named with a protein.
# T1: Flag-tagged NAT10 (not stated (human or mouse cDNA cloned)) (UniProt Q8K224)
# T1 sequence: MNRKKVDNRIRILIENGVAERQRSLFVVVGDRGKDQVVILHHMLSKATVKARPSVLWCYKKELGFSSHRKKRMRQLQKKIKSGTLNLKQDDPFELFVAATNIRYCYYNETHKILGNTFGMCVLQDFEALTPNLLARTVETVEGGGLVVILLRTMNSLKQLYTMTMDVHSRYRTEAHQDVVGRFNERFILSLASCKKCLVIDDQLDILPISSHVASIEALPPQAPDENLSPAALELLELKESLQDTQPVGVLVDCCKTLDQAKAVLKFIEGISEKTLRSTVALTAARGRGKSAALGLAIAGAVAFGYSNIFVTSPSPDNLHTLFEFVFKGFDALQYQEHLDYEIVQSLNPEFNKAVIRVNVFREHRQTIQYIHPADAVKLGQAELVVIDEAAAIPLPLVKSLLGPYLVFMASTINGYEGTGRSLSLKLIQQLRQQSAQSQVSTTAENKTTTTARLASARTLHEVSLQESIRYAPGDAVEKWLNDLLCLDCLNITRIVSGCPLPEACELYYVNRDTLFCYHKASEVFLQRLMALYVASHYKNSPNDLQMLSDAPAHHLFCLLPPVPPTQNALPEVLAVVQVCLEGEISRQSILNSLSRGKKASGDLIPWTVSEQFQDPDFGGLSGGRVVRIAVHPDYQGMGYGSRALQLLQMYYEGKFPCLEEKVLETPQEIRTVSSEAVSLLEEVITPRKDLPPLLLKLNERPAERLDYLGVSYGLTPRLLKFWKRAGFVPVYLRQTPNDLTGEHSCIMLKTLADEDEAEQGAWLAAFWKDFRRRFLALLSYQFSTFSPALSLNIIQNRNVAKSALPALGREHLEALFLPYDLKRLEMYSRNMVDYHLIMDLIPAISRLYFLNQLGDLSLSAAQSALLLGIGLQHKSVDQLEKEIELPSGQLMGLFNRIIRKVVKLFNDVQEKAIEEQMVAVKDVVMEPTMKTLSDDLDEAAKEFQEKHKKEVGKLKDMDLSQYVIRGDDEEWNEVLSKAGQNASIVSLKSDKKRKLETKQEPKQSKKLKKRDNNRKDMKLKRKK
# T2: N-acetyltransferase 10 (mouse (endogenous in BMDMs)) (UniProt Q8K224)
# T2 sequence: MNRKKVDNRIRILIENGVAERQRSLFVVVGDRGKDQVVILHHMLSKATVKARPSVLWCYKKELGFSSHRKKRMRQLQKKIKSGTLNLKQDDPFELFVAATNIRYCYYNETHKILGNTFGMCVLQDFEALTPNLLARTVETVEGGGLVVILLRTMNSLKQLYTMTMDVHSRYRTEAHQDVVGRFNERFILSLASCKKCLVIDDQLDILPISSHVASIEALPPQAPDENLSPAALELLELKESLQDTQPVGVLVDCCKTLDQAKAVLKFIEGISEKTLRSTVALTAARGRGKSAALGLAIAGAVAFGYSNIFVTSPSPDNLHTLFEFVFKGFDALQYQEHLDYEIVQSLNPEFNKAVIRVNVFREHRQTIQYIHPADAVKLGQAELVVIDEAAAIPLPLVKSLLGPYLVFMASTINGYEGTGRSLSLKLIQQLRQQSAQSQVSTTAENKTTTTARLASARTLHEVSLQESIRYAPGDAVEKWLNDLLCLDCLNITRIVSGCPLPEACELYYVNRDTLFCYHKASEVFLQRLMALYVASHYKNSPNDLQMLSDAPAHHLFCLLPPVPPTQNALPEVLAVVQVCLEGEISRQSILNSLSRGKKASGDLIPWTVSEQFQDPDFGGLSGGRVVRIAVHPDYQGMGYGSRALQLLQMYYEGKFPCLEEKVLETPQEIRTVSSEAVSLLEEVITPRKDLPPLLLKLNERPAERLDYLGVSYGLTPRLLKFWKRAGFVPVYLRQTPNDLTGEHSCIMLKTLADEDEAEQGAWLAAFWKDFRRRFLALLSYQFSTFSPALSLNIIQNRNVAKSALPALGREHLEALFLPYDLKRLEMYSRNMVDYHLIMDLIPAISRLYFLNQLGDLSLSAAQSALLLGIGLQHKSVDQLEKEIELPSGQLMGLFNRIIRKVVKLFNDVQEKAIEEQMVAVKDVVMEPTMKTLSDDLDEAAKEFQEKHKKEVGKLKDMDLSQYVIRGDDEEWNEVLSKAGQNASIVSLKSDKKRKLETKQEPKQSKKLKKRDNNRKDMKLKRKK
# Columns and labels:
# [1] = molecular target: T1, Flag-tagged NAT10 (not stated (human or mouse cDNA cloned)); assay: co-IP; RAW264.7 cells transfected with Myc-tagged USP39 and Flag-tagged NAT10, treated with PBS or LPS for 24 h; lysates immunoprecipitated with anti-Flag antibody, Western blot
# [2] = molecular target: T2, N-acetyltransferase 10 (mouse (endogenous in BMDMs)); assay: co-IP; Pierce Crosslink Magnetic IP/Co-IP Kit; 10 ug rabbit anti-mouse NAT10 antibody (ab194297), USP39 antibody (ab131244) or rabbit IgG; immunoprecipitates and input analysed by western blotting
binding [1],binding [2],Binder
binds,,"Myc-tagged USP39 (enzyme, UniProt Q3TIX9 1-564) MSSRSKRQSHGSTRGKRESESRGSSGRIKKERDREKEPEAASSRGSPVRVKREAEPAAREVPAPALPVVRVKREREADEDSEPEREVRAKNGRVDSEDRRSRHCPYLDTINRSVLDFDFEKLCSISLSHINAYACLVCGKYFQGRGLKSHAYIHSVQFSHHVFLNLHTLKFYCLPDNYEIIDSSLEDITYVLKPTFTKQQIANLDKQAKLSRAYDGTTYLPGIVGLNNIKANDYANAVLQALSNVPPLRNYFLEEDNYKNIKRPPGDIMFLLVQRFGELMRKLWNPRNFKAHVSPHEMLQAVVLCSKKTFQITKQGDGVDFLSWFLNALHSALGGTKKKKKTIVNDVFQGSMRIFTKKLPHPDLPAEEKEQLLHNDEYQETMVESTFMYLTLDLPTAPLYKDEKEQLIIPQVPLFNILAKFNGITEKEYKTYKENFLKRFQLTKLPPYLIFCIKRFTKNNFFVEKNPTIVNFPITNVDLREYLSEEVQAVHKNTTYDLIANIVHDGKPSEGSYRIHVLHHGTGKWYELQDLQVTDILPQMITLSEAYIQIWKRRDNDETNQQGA"
,binds,"USP39 (enzyme, UniProt Q3TIX9 1-564) MSSRSKRQSHGSTRGKRESESRGSSGRIKKERDREKEPEAASSRGSPVRVKREAEPAAREVPAPALPVVRVKREREADEDSEPEREVRAKNGRVDSEDRRSRHCPYLDTINRSVLDFDFEKLCSISLSHINAYACLVCGKYFQGRGLKSHAYIHSVQFSHHVFLNLHTLKFYCLPDNYEIIDSSLEDITYVLKPTFTKQQIANLDKQAKLSRAYDGTTYLPGIVGLNNIKANDYANAVLQALSNVPPLRNYFLEEDNYKNIKRPPGDIMFLLVQRFGELMRKLWNPRNFKAHVSPHEMLQAVVLCSKKTFQITKQGDGVDFLSWFLNALHSALGGTKKKKKTIVNDVFQGSMRIFTKKLPHPDLPAEEKEQLLHNDEYQETMVESTFMYLTLDLPTAPLYKDEKEQLIIPQVPLFNILAKFNGITEKEYKTYKENFLKRFQLTKLPPYLIFCIKRFTKNNFFVEKNPTIVNFPITNVDLREYLSEEVQAVHKNTTYDLIANIVHDGKPSEGSYRIHVLHHGTGKWYELQDLQVTDILPQMITLSEAYIQIWKRRDNDETNQQGA"
